Measurements taken from doi:10.1101/2022.05.09.491207.
These are yes or no findings as the source states them, for the method shown. In cells and extracts the contact can be indirect. Some binding calls cover weakened binding; strength is not graded here.

Chains of the proteins cited; added tags and fusions are not shown.
UniProt Q01082: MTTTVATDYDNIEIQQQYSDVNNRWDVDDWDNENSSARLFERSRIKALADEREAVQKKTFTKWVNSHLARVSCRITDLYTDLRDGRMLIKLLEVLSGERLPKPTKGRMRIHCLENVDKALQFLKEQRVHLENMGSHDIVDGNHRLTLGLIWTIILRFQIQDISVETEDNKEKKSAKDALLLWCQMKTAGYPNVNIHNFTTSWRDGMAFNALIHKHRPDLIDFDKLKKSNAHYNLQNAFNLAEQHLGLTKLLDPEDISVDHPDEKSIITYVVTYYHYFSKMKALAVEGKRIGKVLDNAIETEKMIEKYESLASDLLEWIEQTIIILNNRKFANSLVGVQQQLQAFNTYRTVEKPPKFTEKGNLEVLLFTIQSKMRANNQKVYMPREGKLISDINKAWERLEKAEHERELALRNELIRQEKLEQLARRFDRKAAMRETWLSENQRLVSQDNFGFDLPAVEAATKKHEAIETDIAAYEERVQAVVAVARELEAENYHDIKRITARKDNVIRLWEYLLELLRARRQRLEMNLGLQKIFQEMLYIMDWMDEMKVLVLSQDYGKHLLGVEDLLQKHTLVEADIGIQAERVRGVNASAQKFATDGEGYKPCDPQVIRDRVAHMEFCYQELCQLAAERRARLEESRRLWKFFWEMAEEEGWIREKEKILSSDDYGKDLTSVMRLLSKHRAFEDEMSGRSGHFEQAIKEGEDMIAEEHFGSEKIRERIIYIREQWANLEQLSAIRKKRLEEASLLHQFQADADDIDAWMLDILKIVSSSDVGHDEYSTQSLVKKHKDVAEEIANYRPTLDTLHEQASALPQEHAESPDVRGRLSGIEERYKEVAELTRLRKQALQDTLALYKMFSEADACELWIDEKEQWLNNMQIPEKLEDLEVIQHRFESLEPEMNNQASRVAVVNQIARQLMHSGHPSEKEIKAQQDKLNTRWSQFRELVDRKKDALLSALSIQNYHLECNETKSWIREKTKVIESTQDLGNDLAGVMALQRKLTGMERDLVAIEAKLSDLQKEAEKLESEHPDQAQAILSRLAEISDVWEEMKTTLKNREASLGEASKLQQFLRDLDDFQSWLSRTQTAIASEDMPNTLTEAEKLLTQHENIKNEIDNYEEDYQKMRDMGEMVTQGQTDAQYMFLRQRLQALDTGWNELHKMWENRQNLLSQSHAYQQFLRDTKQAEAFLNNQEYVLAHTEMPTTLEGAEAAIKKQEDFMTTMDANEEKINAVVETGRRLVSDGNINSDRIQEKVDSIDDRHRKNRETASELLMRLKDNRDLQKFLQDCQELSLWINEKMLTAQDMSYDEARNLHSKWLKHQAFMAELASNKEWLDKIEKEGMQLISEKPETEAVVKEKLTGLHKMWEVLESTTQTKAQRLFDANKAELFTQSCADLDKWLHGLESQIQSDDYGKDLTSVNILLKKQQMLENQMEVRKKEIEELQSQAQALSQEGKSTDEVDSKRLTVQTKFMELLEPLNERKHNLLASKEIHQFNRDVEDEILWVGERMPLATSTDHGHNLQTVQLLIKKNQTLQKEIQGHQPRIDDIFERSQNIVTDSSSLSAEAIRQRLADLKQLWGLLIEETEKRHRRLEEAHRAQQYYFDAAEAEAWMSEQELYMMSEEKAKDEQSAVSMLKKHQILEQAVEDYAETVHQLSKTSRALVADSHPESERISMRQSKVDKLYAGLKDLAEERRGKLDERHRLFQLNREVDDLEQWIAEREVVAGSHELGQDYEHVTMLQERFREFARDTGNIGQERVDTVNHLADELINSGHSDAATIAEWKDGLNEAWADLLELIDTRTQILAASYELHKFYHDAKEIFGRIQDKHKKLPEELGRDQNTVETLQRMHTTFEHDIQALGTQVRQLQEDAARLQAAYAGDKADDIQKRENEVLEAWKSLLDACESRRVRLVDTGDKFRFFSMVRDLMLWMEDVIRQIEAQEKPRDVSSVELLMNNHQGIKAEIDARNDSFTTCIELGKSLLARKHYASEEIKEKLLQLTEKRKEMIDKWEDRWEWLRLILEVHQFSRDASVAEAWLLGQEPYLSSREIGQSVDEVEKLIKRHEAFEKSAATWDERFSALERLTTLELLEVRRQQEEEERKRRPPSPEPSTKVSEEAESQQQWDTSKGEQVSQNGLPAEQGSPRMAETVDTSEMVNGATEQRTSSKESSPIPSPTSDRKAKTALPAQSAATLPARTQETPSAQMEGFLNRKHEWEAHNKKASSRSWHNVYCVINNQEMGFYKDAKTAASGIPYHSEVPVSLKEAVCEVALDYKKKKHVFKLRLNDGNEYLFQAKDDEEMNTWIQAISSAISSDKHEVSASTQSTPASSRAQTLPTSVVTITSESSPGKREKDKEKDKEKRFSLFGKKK
UniProt Q9UIL1: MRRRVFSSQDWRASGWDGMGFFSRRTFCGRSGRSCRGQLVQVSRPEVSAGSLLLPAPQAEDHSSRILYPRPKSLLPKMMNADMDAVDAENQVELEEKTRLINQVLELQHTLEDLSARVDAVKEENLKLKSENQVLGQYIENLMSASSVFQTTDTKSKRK

Molecular target: SPTBN1::GFP (human βII spectrin fused to eGFP) (human) (UniProt Q01082)
Test: co-IP

## HALO::SCOC (from UniProt Q9UIL1 1-159)
  binding: binds

B1: mCherry::FEZ1 (protein, UniProt Q99689 1-392)
chain: MEAPLVSLDEEFEDLRPSCSEDPEEKPQCFYGSSPHHLEDPSLSELENFSSEIISFKSMEDLVNEFDEKLNVCFRNYNAKTENLAPVKNQLQIQEEEETLQDEEVWDALTDNYIPSLSEDWRDPNIEALNGNCSDTEIHEKEEEEFNEKSENDSGINEEPLLTADQVIEEIEEMMQNSPDPEEEEEVLEEEDGGETSSQADSVLLQEMQALTQTFNNNWSYEGLRHMSGSELTELLDQVEGAIRDFSEELVQQLARRDELEFEKEVKNSFITVLIEVQNKQKEQRELMKKRRKEKGLSLQSSRIEKGNQMPLKRFSMEGISNILQSGIRQTFGSSGTDKQYLNTVIPYEKKASPPSVEDLQMLTNILFAMKEDNEKVPTLLTDYILKVLCPT
  binding: binds
